From the supplement of paper PMC10849652
The list shows a part of the results.

Protein sequences, listed by entry. Tags and fused reporters are not part of them. Lines headed by an entry give the natural chain unless they say otherwise; changes in a name come on top.
UniProt Q86YB8: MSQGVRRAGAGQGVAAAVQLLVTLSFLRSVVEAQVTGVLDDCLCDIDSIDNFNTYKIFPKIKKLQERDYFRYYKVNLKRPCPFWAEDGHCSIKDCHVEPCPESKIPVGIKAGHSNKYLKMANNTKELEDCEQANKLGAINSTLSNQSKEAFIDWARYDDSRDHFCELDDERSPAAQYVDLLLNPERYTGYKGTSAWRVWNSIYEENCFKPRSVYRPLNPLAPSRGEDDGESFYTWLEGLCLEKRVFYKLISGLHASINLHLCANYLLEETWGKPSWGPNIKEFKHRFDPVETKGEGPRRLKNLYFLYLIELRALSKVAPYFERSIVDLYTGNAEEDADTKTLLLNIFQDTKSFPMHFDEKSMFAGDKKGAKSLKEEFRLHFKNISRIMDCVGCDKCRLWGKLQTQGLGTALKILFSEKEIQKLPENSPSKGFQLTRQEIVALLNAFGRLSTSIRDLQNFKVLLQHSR
UniProt Q9NVH0: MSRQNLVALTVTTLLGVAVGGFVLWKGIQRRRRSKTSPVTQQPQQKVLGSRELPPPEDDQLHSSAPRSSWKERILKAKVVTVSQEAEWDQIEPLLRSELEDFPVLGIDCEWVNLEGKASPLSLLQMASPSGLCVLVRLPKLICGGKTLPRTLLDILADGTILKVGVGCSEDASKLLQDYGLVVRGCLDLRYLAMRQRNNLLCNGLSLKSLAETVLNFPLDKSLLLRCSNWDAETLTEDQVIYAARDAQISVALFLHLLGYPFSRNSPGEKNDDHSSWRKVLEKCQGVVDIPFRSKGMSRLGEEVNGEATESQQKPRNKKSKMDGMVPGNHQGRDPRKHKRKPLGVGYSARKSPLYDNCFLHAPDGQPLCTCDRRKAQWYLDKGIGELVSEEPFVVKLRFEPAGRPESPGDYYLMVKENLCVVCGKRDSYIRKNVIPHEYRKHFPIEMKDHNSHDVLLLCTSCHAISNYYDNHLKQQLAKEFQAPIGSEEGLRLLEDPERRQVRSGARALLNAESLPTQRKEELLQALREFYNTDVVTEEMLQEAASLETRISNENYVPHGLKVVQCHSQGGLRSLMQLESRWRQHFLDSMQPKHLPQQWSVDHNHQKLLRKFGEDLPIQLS
UniProt Q9Y2C4: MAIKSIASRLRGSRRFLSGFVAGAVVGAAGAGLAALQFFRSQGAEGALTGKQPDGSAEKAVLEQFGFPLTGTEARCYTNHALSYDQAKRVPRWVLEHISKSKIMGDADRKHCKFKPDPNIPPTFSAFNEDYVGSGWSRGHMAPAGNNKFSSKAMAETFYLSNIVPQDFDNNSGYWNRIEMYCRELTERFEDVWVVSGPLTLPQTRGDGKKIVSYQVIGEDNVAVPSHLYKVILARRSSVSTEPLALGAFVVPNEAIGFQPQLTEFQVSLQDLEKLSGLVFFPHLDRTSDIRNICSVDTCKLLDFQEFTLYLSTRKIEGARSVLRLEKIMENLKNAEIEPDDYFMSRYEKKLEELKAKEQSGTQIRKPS
UniProt Q99504: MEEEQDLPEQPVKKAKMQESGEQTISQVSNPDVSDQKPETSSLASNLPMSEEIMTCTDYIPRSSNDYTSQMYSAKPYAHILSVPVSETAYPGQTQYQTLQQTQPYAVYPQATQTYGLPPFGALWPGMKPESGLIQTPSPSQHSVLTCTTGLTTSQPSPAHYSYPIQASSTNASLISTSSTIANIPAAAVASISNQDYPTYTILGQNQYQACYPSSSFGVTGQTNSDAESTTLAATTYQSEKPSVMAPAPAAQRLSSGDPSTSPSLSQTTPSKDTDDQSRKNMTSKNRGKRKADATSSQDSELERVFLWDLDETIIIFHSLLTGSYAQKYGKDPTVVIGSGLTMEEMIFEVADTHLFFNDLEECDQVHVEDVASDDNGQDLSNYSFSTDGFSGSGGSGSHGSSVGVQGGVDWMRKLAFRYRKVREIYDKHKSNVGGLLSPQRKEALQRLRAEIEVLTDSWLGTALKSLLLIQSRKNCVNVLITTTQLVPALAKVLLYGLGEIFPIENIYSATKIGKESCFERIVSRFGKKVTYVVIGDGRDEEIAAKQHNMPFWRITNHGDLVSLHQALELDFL
UniProt P05413, whole entry, looked up: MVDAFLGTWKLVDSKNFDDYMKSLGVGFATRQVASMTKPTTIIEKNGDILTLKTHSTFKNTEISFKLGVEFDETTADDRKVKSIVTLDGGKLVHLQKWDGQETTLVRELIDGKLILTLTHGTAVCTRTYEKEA
UniProt Q8WUF8: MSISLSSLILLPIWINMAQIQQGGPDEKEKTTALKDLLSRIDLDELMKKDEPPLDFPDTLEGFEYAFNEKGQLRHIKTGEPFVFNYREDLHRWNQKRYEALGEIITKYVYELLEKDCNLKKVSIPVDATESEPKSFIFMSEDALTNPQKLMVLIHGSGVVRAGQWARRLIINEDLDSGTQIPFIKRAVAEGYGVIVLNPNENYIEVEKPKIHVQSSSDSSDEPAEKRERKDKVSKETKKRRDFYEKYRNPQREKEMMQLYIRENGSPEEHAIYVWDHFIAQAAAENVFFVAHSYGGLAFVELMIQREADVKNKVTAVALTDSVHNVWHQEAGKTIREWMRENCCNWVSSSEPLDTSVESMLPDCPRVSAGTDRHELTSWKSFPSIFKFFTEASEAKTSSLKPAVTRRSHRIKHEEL
UniProt Q9BQ89: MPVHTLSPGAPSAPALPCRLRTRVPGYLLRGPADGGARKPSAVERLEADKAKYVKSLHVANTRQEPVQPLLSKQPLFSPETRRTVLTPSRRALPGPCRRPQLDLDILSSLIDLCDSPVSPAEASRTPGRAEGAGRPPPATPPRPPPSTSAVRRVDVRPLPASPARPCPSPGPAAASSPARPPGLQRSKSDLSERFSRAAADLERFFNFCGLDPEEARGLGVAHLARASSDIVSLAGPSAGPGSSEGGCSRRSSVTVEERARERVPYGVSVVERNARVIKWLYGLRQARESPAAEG
UniProt Q9HCE0: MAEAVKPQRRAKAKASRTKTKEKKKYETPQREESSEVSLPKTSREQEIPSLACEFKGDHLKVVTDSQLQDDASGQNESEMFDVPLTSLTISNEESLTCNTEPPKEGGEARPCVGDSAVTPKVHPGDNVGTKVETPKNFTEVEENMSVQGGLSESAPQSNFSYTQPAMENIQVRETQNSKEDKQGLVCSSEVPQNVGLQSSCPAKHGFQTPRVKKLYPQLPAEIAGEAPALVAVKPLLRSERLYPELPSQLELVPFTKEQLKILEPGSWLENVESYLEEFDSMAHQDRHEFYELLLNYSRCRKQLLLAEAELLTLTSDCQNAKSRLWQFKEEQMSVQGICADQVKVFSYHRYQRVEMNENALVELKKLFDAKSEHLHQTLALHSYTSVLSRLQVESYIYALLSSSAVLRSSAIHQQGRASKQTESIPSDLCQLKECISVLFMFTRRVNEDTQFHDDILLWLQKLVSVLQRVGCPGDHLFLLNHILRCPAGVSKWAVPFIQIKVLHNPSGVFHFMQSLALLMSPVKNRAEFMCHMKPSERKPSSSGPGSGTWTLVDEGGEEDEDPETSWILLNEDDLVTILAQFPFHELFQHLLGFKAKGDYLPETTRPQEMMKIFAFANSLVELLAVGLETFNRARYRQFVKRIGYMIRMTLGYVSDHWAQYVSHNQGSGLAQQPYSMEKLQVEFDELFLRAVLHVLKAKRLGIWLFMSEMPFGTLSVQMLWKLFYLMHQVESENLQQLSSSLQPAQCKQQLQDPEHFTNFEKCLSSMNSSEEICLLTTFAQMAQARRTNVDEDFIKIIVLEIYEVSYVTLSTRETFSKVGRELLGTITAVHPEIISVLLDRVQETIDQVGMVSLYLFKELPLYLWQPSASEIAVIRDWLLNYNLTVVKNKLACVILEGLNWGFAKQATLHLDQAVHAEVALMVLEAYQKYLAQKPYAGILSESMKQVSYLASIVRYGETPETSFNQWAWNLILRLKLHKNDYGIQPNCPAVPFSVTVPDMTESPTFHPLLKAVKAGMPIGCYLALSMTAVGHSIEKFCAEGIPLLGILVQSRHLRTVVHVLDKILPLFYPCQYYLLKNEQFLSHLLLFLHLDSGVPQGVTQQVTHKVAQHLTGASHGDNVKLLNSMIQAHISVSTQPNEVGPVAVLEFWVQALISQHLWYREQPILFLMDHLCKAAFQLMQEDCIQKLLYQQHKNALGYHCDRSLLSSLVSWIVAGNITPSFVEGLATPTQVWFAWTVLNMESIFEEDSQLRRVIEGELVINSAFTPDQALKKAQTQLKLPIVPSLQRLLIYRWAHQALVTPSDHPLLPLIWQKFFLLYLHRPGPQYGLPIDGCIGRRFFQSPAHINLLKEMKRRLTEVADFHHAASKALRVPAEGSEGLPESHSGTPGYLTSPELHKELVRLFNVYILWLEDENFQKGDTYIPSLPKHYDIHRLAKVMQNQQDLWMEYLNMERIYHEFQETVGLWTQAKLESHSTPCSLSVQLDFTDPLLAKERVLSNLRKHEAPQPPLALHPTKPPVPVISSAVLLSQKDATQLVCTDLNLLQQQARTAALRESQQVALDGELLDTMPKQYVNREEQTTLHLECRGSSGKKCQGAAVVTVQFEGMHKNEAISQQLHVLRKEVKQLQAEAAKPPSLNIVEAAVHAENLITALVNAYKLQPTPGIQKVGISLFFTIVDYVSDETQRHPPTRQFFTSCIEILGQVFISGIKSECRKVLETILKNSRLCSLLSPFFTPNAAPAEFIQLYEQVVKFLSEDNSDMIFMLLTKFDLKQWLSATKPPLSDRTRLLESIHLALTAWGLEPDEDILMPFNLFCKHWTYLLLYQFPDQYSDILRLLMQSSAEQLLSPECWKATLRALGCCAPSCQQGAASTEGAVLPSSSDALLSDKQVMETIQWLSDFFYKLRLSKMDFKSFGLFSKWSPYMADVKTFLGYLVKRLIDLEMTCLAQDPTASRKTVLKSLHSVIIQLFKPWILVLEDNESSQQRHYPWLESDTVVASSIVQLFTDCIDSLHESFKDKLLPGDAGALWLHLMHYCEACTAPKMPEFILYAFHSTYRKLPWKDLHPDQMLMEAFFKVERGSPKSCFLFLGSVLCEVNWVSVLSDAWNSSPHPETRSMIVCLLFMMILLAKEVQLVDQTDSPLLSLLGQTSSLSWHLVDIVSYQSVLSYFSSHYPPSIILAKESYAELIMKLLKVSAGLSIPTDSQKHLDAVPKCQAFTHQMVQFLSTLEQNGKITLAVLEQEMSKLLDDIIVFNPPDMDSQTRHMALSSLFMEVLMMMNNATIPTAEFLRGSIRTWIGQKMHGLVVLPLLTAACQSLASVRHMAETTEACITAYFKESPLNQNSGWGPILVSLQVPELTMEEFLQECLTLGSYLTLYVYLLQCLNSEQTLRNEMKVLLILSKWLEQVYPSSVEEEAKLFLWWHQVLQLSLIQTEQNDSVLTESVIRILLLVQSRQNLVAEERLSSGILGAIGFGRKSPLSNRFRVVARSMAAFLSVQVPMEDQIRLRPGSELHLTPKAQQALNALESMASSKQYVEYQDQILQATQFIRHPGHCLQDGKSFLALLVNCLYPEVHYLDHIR
UniProt Q8IV48: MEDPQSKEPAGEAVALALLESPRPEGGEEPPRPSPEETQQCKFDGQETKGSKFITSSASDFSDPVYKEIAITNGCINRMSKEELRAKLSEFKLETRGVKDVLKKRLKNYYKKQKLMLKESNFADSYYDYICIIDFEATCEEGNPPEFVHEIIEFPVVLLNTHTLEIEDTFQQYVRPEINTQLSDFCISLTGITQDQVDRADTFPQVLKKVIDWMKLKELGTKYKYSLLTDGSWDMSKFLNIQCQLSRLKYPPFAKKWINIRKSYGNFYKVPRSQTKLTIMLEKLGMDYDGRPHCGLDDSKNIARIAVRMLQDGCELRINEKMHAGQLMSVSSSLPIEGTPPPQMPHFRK
UniProt Q9H098: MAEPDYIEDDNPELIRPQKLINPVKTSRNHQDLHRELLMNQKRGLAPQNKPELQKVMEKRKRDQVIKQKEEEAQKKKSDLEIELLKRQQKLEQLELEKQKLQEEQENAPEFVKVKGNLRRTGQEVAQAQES
UniProt Q9Y6I3: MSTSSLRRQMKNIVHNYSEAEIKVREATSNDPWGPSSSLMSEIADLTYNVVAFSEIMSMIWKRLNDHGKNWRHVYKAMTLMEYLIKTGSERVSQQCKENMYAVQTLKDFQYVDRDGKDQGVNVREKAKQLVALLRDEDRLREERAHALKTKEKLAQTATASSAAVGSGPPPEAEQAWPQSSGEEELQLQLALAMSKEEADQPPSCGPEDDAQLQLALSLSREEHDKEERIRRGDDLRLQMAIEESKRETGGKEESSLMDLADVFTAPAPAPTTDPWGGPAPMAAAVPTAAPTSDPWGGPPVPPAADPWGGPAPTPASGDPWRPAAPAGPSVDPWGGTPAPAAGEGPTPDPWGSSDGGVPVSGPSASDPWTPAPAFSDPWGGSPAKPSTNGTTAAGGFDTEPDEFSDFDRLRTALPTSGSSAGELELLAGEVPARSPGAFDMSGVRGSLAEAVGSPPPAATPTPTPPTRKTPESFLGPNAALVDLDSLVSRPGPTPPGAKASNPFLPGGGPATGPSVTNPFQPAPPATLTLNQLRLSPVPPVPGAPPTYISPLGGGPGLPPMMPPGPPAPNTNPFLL

Tests used:
Experiment in all cases: log2 fold change, soluble protein after heating vs DMSO (PISA); higher = thermal stabilisation; K562 cells, 10 uM, 30 min; active = over 0.2 and 3.5 SD of the protein, either way, in both replicates (recomputed)
[1] = compound: C#Cc1cccc(Nc2ncnc3cc(OCCOC)c(OCCOC)cc23)c1 [erlotinib]
How it was run: (§1)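 K562 cells at 2×10^6 cells/mL were exposed to 10 μM compound for 30 min, then aliquots were heated for 3 min across 48°C-58°C, pooled, and extracted in PBS containing 0.5% NP-40 at 4°C. The supernatant after 21,000xg for 90 min was taken as soluble protein and measured by TMTpro 16plex LC-MS/MS with channel sums equalised. Thermal stability is reported relative to control samples, with values from duplicates. Fold changes are given on a log2 scale.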

[2] = compound: C/C(=N\NC(=O)C1=CC(=CC=C1)S(=O)(=O)N2CCOCC2)/C3=C(C=CC(=C3)Cl)O
How it was run: as §1

[3] = compound: C1=CC(=C(C=C1Cl)C2=NC3=NC=CN=C3C(=N2)NC4=CC=NC=C4)F
How it was run: as §1

[4] = compound: C1=CC(=CC=C1C2=NC3=C(N2)C=C(C=C3)C(=O)N)OC4=CC=C(C=C4)Cl
How it was run: as §1

[5] = compound: C1=CC2=C(C=CC(=C2)/C=C\3/C(=O)NC(=NCC4=CC=CS4)S3)N=C1
How it was run: as §1

[6] = compound: C1=CC2=NC=CN=C2C=C1/C=C/3\C(=O)NC(=O)S3
How it was run: as §1

[7] = compound: C1=CC=C2C(=C1)C3=NNC4=CC=CC(=C43)C2=O
How it was run: as §1

[8] = compound: C1=CC=C(C=C1)C2=NC(=C(N2)C3=CC=NC=C3)C4=CC(=C(C=C4)Cl)O
How it was run: as §1

[9] = compound: C1CCN(C1)C(=O)NC2=CC=CC(=C2)NC3=NC=C(C(=N3)NCCC4=CN=CN4)Br
How it was run: as §1

[10] = compound: C1CN(CCC1(CC2=CC=C(C=C2)Cl)N)C3=NC=NC4=C3C=CN4
How it was run: as §1

Measured: log2 fold change

ESYT2 (UniProt H7BXI1)
inactive: [1] 0.097 | [2] 0.091 | [3] -0.135 | [4] -0.106 | [5] -0.04 | [6] 0.032 | [7] 0.041

FABP5 (UniProt Q01469)
inactive: [1] -0.037 | [2] 0.096 | [3] 0.035 | [4] 0.017 | [5] -0.125 | [6] 0.014 | [8] 0.083 | [7] 0 | [9] 0.019 | [10] -0.011

ERAL1 (UniProt O75616)
inactive: [1] 0.133 | [2] 0.183 | [3] -0.003 | [4] -0.226 | [5] 0.143 | [6] 0.029 | [7] -0.089

ERO1B (UniProt Q86YB8)
inactive: [1] 0.051 | [2] -0.008 | [3] -0.233 | [4] -0.052 | [5] 0.056 | [6] 0.071 | [7] 0

EZH2 isoform 2 (UniProt Q15910)
inactive: [1] -0.036 | [2] 0.129 | [3] 0.163 | [4] 0.084 | [5] 0.046 | [6] 0.048 | [7] 0.054 | [9] -0.106 | [10] -0.062

EPPK1 (UniProt P58107)
inactive: [1] -0.131 | [3] -0.365 | [4] -0.004 | [6] -0.099 | [8] -0.363 | [9] -0.16 | [10] -0.5

ERN1 (UniProt O75460)
inactive: [1] 0.046 | [3] -0.112 | [4] -0.035 | [8] 0 | [9] 0.022 | [10] 0.09

FAM120B (UniProt Q96EK7)
inactive: [1] -0.149 | [2] -0.169 | [4] -0.05 | [5] -0.033 | [7] 0.216

EXD2 (UniProt Q9NVH0)
inactive: [1] 0.013 | [3] -0.262 | [4] 0.021 | [8] 0.006

F10 (UniProt P00742)
inactive: [1] -0.199 | [3] 0.07 | [4] 0.081 | [6] -0.095 | [8] -0.089 | [9] 0.105 | [10] 0.206

ERCC8 (UniProt Q13216)
inactive: [1] 0.009 | [2] -0.018 | [4] -0.14 | [5] -0.012 | [6] -0.031 | [8] -0.02 | [7] -0.013 | [9] 0.017 | [10] -0.098

EXOG (UniProt Q9Y2C4)
inactive: [2] -0.083 | [5] -0.019 | [8] 0.052 | [7] 0.015 | [9] -0.159 | [10] 0.122

EYA3 (UniProt Q99504)
inactive: [2] 0.056 | [5] 0.304 | [7] -0.034 | [9] -0.146 | [10] -0.069

ERICH1 (UniProt Q86X53)
inactive: [9] 0.041 | [10] -0.137

EVPL (UniProt Q92817)
inactive: [8] 0.113

FAM160A2 isoform 2 (UniProt Q8N612)
inactive: [3] 0.2 | [6] -0.012 | [8] -0.134 | [9] -0.071 | [10] 0.027

FAM193B (UniProt Q96PV7)
inactive: [2] -0.127 | [3] -0.311 | [5] -0.085 | [6] 0.068 | [7] -0.101 | [9] -0.133 | [10] -0.483

ETF1 isoform 2 (UniProt P62495)
inactive: [2] -0.019 | [5] 0.177 | [6] 0.057 | [8] -0.281 | [7] -0.04

EPS8L1 (UniProt Q8TE68)
inactive: [3] 0.042 | [6] -0.211

Looked up one by one from the list above, 3 records:
EVPL (UniProt Q92817)
inactive: [8] 0.113

ERAL1 (UniProt O75616)
inactive: [1] 0.133 | [2] 0.183 | [3] -0.003 | [4] -0.226 | [5] 0.143 | [6] 0.029 | [7] -0.089

FABP5 (UniProt Q01469)
inactive: [1] -0.037 | [2] 0.096 | [3] 0.035 | [4] 0.017 | [5] -0.125 | [6] 0.014 | [8] 0.083 | [7] 0 | [9] 0.019 | [10] -0.011

The list continues:

EPHA6 (UniProt Q9UF33)
inactive: [2] -0.58 | [3] -0.287 | [5] 0.579 | [6] -0.249 | [8] -0.5 | [7] -0.396 | [9] 0.054 | [10] -0.062

FAAP20 isoform 2 (UniProt Q6NZ36)
inactive: [3] -0.055

ERCC6L (UniProt Q2NKX8)
inactive: [2] 0.02 | [3] -0.259 | [5] -0.012 | [6] 0.088 | [8] -0.076 | [7] -0.123 | [9] -0.101 | [10] -0.081

F13A1 (UniProt P00488)
inactive: [6] -0.046 | [9] -0.277 | [10] 0.256

FABP3 (UniProt P05413)
inactive: [2] -0.221 | [5] 0.025 | [7] -0.175

FAM172A (UniProt Q8WUF8)
inactive: [3] 0.031 | [6] -0.106

F2R (UniProt P25116)
inactive: [2] 0.008 | [5] -0.004 | [7] -0.095 | [9] -0.059 | [10] -0.054

FAM110A (UniProt Q9BQ89)
inactive: [3] -0.131

EPG5 (UniProt Q9HCE0)
inactive: [3] -0.375 | [8] 0.051

EPHX2 (UniProt E5RI53)
inactive: [3] 0.037 | [6] -0.082

ERCC1 isoform 3 (UniProt P07992)
inactive: [8] -0.028

ERI1 (UniProt Q8IV48)
inactive: [3] -0.179 | [8] 0.041 | [9] 0.013 | [10] -0.037

ESF1 (UniProt Q9H501)
inactive: [6] 0.696 | [8] 0.175

FAM107B isoform 2 (UniProt Q9H098)
inactive: [3] 0.108

F13B (UniProt P05160)
inactive: [9] -0.053 | [10] 0.137

FADS1 (UniProt F5GYH4)
inactive: [6] 0.155 | [9] 0.057 | [10] 0.002

EPHB4 (UniProt P54760)
inactive: [8] -0.151

EPB41L2 isoform 4 (UniProt O43491)
inactive: [3] 0.027 | [6] -0.005

EPC1 (UniProt Q9H2F5)
inactive: [8] -0.186

FAM126B (UniProt Q8IXS8)
inactive: [2] -0.129 | [5] 0.193 | [7] 0.207

F9 (UniProt P00740)
inactive: [2] -0.081 | [5] 0.153 | [6] 0.123 | [7] -0.271 | [9] -0.035 | [10] 0.277

FAM102B (UniProt Q5T8I3)
inactive: [3] 0.092 | [8] -0.036

EPN1 isoform 3 (UniProt Q9Y6I3)
inactive: [6] 0

FAM174A (UniProt Q8TBP5)
inactive: [9] 0 | [10] 0.095

EPS15L1 (UniProt M0QY01)
inactive: [3] -0.004
